# The whole screen tested about 260,000 compounds, of which about 1,500 (0.58%) were called active. This list was built around the results that the source calls inconclusive (neither active nor inactive); the mix of calls is not that of the screen.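 The calls were made as follows: active = inhibition above a set limit at one or more doses, reproduced on every date tested; inconclusive = results disagree between test dates, or hit never tested in dose response; inactive = the rest.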
# The chains behind the UniProt entries cited, without tags or fusion partners. Where a name states a change or a piece, a line headed by the entry shows the natural chain unless it says otherwise.
# UniProt P69720: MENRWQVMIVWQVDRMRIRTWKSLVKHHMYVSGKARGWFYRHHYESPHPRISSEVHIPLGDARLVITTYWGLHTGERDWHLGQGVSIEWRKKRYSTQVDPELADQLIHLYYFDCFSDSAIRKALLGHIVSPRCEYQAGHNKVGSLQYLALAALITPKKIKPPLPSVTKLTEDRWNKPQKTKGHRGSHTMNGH
# UniProt P69721: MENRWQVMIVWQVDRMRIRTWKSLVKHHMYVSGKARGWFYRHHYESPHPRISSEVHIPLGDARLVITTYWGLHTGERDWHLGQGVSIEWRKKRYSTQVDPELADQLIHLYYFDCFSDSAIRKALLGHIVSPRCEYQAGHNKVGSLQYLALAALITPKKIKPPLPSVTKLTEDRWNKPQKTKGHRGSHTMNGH
# UniProt P69722: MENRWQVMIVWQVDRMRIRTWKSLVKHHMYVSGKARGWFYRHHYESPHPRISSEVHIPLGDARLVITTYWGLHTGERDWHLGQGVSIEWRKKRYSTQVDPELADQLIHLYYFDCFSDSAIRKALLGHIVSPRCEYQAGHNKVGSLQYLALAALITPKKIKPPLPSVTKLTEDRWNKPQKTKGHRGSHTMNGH
# UniProt P69723: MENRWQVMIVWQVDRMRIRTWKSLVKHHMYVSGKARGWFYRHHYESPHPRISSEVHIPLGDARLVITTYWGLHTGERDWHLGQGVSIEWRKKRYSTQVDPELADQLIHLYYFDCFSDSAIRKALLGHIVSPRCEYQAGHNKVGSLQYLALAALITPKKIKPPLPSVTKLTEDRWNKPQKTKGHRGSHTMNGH
# UniProt Q9HC16: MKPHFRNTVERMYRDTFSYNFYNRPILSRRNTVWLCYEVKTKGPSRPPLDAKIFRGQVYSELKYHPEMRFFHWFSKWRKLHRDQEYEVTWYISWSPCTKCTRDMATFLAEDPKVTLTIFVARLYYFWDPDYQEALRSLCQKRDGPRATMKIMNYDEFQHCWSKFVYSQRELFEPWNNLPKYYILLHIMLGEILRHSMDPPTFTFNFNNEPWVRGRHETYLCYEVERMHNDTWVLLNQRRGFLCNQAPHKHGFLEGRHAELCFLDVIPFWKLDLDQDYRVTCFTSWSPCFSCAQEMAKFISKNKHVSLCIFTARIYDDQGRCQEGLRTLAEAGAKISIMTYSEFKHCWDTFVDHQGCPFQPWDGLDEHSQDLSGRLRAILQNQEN
# Molecular target: Virion infectivity factor (Human immunodeficiency virus type 1 group M subtype B (isolate BH10)) + Virion infectivity factor (Human immunodeficiency virus type 1 group M subtype B (isolate BRU/LAI)) + Virion infectivity factor (Human immunodeficiency virus type 1 group M subtype B (isolate PCV12)) + Virion infectivity factor (Human immunodeficiency virus type 1 group M subtype B (isolate HXB2)) + DNA dC->dU-editing enzyme APOBEC-3G (Homo sapiens) (UniProt P69720+P69721+P69722+P69723+Q9HC16)
# Assay: inhibitors of Vif binding to APOBEC3G peptide, primary screen, biochemical, TR-FRET, GST-Vif 1-94, biotin-A3G peptide, dose response retest (AID 1117319);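 also: Vif residues 1-94 fused to GST binding biotinylated APOBEC3G peptide 110-148; 0% = full assay without inhibitor and 100% = GST in place of GST-Vif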
# Settings: stronger effect = higher value
row,SMILES,inhibition
1,O=C(CC1Sc2ccccc2NC1=O)OCc1cc(=O)oc2cc(O)ccc12 (stereo unspecified),inconclusive: 37.4%
2,Cc1cc(=O)c2ccc(Cl)cc2[nH]1,inconclusive: 34.9%
3,Cc1cc(C)nc(/N=C(/NC(=O)Nc2ccc(Cl)c(Cl)c2)Nc2cccc(Cl)c2)n1,inconclusive: 43.6%
4,COc1ccccc1Nc1nnc(SCC(=O)NC2CCCC2)s1,inactive: -10.8%
5,Cc1ccc(NC(=O)c2ccc(Nc3c([N+](=O)[O-])cc([N+](=O)[O-])cc3[N+](=O)[O-])cc2)cc1,inconclusive: 41.9%
6,Cn1c(=O)c2c(ncn2CC(=O)N2CCN(c3ccccc3)CC2)n(C)c1=O,inconclusive: 34.1%
7,COc1ccccc1CNc1nc2nc(C)c(Cl)c(=O)n2[nH]1,inconclusive: 61.8%
8,CCOC(=O)/C(C#N)=C1/C=CN(C)C=N1,inconclusive: 35.5%
9,COc1cc(OC)c(-c2noc(C(=O)OC(C)(C)C)c2C(=O)OC(C)(C)C)c(OC)c1,inactive: -1.31%
10,O=C(Nc1ccccc1)c1ccc(Nc2c([N+](=O)[O-])cc([N+](=O)[O-])c3ccccc23)cc1,inconclusive: 43%
11,CC(C)(C)NC(=O)c1nc2ccccc2s1,inconclusive: 35.3%
12,COc1ccc(S(=O)(=O)Cc2ccc(C(=O)N3CCN(C4CCCCC4)CC3)o2)cc1,inconclusive: 45.1%
13,Cc1ccc2c(CC(=O)OCc3csc(C)n3)coc2c1,inactive: 11.1%
14,CC(=O)Nc1ccc(S(=O)(=O)NC(CC(=O)O)c2ccc(OC(C)C)cc2)cc1 (stereo unspecified),inconclusive: 47.9%
15,Oc1c(C(c2cccs2)N2CCN(c3ccccc3)CC2)ccc2cccnc12 (stereo unspecified),inconclusive: 57.9%
16,CNc1nc(C)c(C(=O)c2ccc(Cl)cc2)s1,inactive: -4.16%
17,O=c1nc2n(c3c4c(sc13)CCC4)CCC2,inconclusive: 45.2%
18,COc1ccc(CCNC(=O)c2sc3cc(C)ccc3c2Cl)cc1,inconclusive: 46.3%
19,O=C(CS(=O)(=O)c1ccc(F)cc1)N1CCN(c2ccccc2)CC1,inactive: -1.09%
20,COc1cc(OC)c(C(=O)NCc2cccnc2)cc1OC,inconclusive: 52.7%
21,CCOc1ccc(N2C(=O)c3ccc(C(=O)OCc4c(C)noc4C)cc3C2=O)cc1,inconclusive: 53.6%
22,CN(Cc1ccco1)S(=O)(=O)c1nnc(NC(=O)c2ccccc2Cl)s1,inconclusive: 49.3%
23,COc1ccc(OC)c2c1C(=O)c1ccccc1C2=O,inconclusive: 28.9%

row,SMILES,inhibition
1,CC12CC(c3ccccc3O1)N(C(=O)c1ccco1)C(=S)N2c1ccc(F)cc1 (stereo unspecified),inconclusive: 62.8%
2,O=S1(=O)N=C2CCCCCN2C(c2ccc(Cl)cc2)N1 (stereo unspecified),inconclusive: 37.3%
3,O=C(Nc1ccc2c(c1)CCC2)c1cnn2c1NC(c1ccco1)CC2C(F)(F)F (stereo unspecified),inconclusive: 34.1%
4,O=S(=O)(NCc1ccc2c(c1)OCO2)c1cccc2nsnc12,inconclusive: 51.3%
5,CCOc1ccc(C(Nc2cccnc2)c2cc(Cl)c3cccnc3c2O)cc1 (stereo unspecified),inconclusive: 34.4%
6,CCOc1ccc2oc(C(=O)NCC(C)(C)CN(C)C)c(C)c2c1,inconclusive: 54.1%
7,CN(C)C=NC(=O)c1ccc(N2CCN(c3ncc(C(F)(F)F)cc3Cl)CC2)cc1,inconclusive: 33.8%
8,Cc1cc(C)[n+](-c2ccc(Oc3ccccc3)c(S(=O)(=O)[O-])c2)[nH]1,inconclusive: 43.7%
9,CN1c2ccccc2C(C)(C)C12C=Cc1cc(O)ccc1O2 (stereo unspecified),inconclusive: 50.8%
10,Cc1cc(NC(=O)CSc2nc3c(sc4ccccc43)c(=O)n2CCc2ccccc2)n[nH]1,inconclusive: 40.7%
11,C/C(CC(=O)Nc1ccc(N(C)C)cc1)=N\NC(=O)Cc1csc(N)n1,inconclusive: 59.4%
12,O=C(N/N=C/c1ccccc1Cl)c1n[nH]c2c1CCCC2,inconclusive: 35.1%
13,c1ccc(-c2nnc(N3CCOCC3)c3ccccc23)cc1,inconclusive: 40%
14,Cc1ccc(CNc2nc3ccccc3s2)s1,inconclusive: 35%
15,Cc1ccc(C(=O)Nc2ccc(S(=O)(=O)N3CCc4ccccc43)cc2)o1,inconclusive: 36%
16,COc1ccc(OC)c(S(=O)(=O)N(C)CC(=O)O)c1,inconclusive: 56.6%
17,Cc1ccc(C)c(NC(=S)N(C)CCO)c1,inconclusive: 43.7%
18,O=C(O)/C=C/C(=O)NC1CC1,inconclusive: 39.4%
19,COc1ccc(/C=N/Nc2nonc2N)cc1,inconclusive: 37.6%
20,Oc1[nH]c2ccc(Br)cc2c1N=Nc1ccc(C(F)(F)F)cn1,inconclusive: 58.1%
21,CN(C)c1ccc(N/C=C/C(=O)c2ccc(F)cc2)cc1,inconclusive: 41.4%
22,CCN(CC)S(=O)(=O)c1cc(-c2nnc(-c3ccc(Br)cc3)o2)ccc1Cl,inconclusive: 37.6%
23,COCc1nnc(NS(=O)(=O)c2ccc(C)cc2)s1,inconclusive: 50.9%

# Of the compounds above, 6 contain an NH in an aromatic ring.
row,SMILES,inhibition
2,Cc1cc(=O)c2ccc(Cl)cc2[nH]1,inconclusive: 34.9%
7,COc1ccccc1CNc1nc2nc(C)c(Cl)c(=O)n2[nH]1,inconclusive: 61.8%
8,Cc1cc(C)[n+](-c2ccc(Oc3ccccc3)c(S(=O)(=O)[O-])c2)[nH]1,inconclusive: 43.7%
10,Cc1cc(NC(=O)CSc2nc3c(sc4ccccc43)c(=O)n2CCc2ccccc2)n[nH]1,inconclusive: 40.7%
12,O=C(N/N=C/c1ccccc1Cl)c1n[nH]c2c1CCCC2,inconclusive: 35.1%
20,Oc1[nH]c2ccc(Br)cc2c1N=Nc1ccc(C(F)(F)F)cn1,inconclusive: 58.1%

# The list continues:

row,SMILES,inhibition
1,N/C(=N\OC(=O)CCn1cccc(C(F)(F)F)c1=O)c1ccc(OC(F)(F)F)cc1,inconclusive: 61.5%
2,CCOc1ccc(N(Cc2ccc(OC)c(OC)c2)C(=O)c2ccco2)cc1,inconclusive: 45.7%
3,O=C(Nc1cccc(O)c1)c1ccccc1,inconclusive: 35.7%
4,CC1CC2(CCCCC2)Nc2ccc3ccccc3c21 (stereo unspecified),inconclusive: 54.4%
5,c1ccc(Cn2ncc3c(Nc4ccccc4)ncnc32)cc1,inconclusive: 51.5%
6,COc1ccccc1NC(=O)CNC(=O)c1ccccc1,inconclusive: 37.6%
7,CN(C)/C=N/C(=S)Nc1cc(Cl)cc(Cl)c1,inconclusive: 62.6%
8,CC(C)(CNC(=O)c1cccs1)CNC(=O)c1cccs1,inactive: 0.17%
9,Fc1cccc(Cl)c1CNc1ccc(N2CCCC2)cc1,inconclusive: 52.4%
10,Oc1ccc(/C=N/Nc2ncnc3c2ncn3Cc2ccccc2)cc1O,inconclusive: 59.5%
11,O=C(CCNS(=O)(=O)c1ccc(F)cc1)N1CCN(c2ncccn2)CC1,inactive: -6.24%
12,COc1ccc(N=C2NC(=O)/C(=C\C=C\c3ccccc3)S2)cc1,inconclusive: 33.8%
13,O=C(NCC(c1cccs1)N1CCOCC1)c1cn(-c2ccccc2)nc1-c1ccccc1 (stereo unspecified),inconclusive: 55.4%
14,CCOC(=O)COc1cc(Br)c(/C=N/Nc2ccccc2)cc1OC,inconclusive: 39.9%
15,Cc1ccc(NC(=O)COC(=O)Cc2ccsc2)cc1S(=O)(=O)N(C)C,inconclusive: 34.6%
16,CCOC(=O)c1[nH]c(C)c(C(=O)Nc2ccccc2C)c1C,inconclusive: 34.2%
17,O=C1CC(c2ccccc2)CC(O)=C1C=NCCN1CCN(C(=S)Nc2cccc(Cl)c2)CC1 (stereo unspecified),inconclusive: 48.6%
18,C=CCNC(=O)c1c(Cl)cccc1Cl,inconclusive: 33%
19,COc1ccc(N2C(=O)C(CC(N)=O)N(NC(=O)c3cccc(OC)c3)C2=S)cc1 (stereo unspecified),inconclusive: 37.5%
20,O=C(O)c1cccc(S(=O)(=O)Nc2ccccc2Cl)c1,inactive: 65.8%
21,CC1CC(C)CN(S(=O)(=O)c2ccccc2[N+](=O)[O-])C1 (stereo unspecified),inconclusive: 38.9%
22,FC(F)(F)c1nnc2ccc(N3CCOCC3)nn12,inconclusive: 14.3%
23,O=S(=O)(c1ccccc1)N(CC(O)Cn1c2ccccc2c2ccccc21)c1ccccc1 (stereo unspecified),inconclusive: 35.4%

# As entered above:
# Value for C=CCNC(=O)c1c(Cl)cccc1Cl under inhibition: inconclusive: 33%
# Value for O=C(Nc1cccc(O)c1)c1ccccc1 under inhibition: inconclusive: 35.7%

# Remaining list, next part.

row,SMILES,inhibition
1,O=C(NC1CCCCC1)OCCN1CCN(Cc2ccccc2)CCC1=O,inconclusive: 38.9%
2,Cc1cccc(-c2cc3nc4c(c(NCc5ccco5)n3n2)CCCC4)c1,inactive: 3.78%
3,O=C(NNS(=O)(=O)c1ccccc1[N+](=O)[O-])c1ccncc1,inconclusive: 57.9%
4,Cc1ccc(C)c(-n2c(CNC(=O)c3ccco3)nnc2SCC(=O)Nc2nccs2)c1,inconclusive: 42.4%
5,Cc1ccc(C)c(N2CCN(C(=O)Cn3cccc3)CC2)c1,inconclusive: 38.1%
6,COc1ccc(/C=C/C(=O)NCc2ccc(F)cc2)cc1S(=O)(=O)N1CCOCC1,inconclusive: 52%
7,CCC1S/C(=N/N=C/c2cccs2)NC1=O (stereo unspecified),inconclusive: 57.2%
8,Cc1ccc(NC(=O)COC(=O)C2CC2)c(Br)c1,inconclusive: 43.8%
9,O=C(Cn1c(NCCO)nc2ccccc21)c1cccs1,inconclusive: 37.3%
10,CN(C)c1oc(-c2ccco2)nc1S(=O)(=O)c1ccc(Br)cc1,inactive: 10.3%
11,O=c1[nH]c2c(s1)C(c1ccccc1)C1C3CCC(C3)C1S2 (stereo unspecified),inconclusive: 62.3%
12,CCOC(=O)C(CC)Sc1nnc(COc2ccc(C)cc2)n1-c1ccccc1 (stereo unspecified),inconclusive: 36.5%
13,CC(CCc1ccccc1)NC(=O)c1cccnc1 (stereo unspecified),inconclusive: 41.1%
14,Cc1ccccc1OCC(=O)OCC(=O)c1ccc[nH]1,inactive: 7.12%
15,CCN(CC)S(=O)(=O)c1ccc(N2CCOCC2)c(NC(=O)C2COc3ccccc3O2)c1 (stereo unspecified),inconclusive: 38.8%
16,Cc1cc(C(=O)NCCCN2CCCC2=O)cs1,inconclusive: 37.4%
17,O=C(CSc1nnc(C2CC2)n1-c1ccccc1)NCCc1ccc(F)cc1,inconclusive: 36.7%
18,N=C1C(c2nc3ccccc3s2)=C(O)CN1NC(=O)c1ccccc1[N+](=O)[O-],inconclusive: 50.8%
19,O=C(CSc1nnc(-c2ccccc2)n1Cc1ccccc1)NNC(=O)c1ccccc1O,inconclusive: 36%
20,Cc1cc(C)c(NC(=O)CSc2nnc(SCC(=O)Nc3c(C)cc(C)cc3C)n2N)c(C)c1,inconclusive: 58.3%
21,O=S(Cc1ccc(Cl)cc1)CC(O)(c1ccccc1)c1ccccc1 (stereo unspecified),inconclusive: 36.3%
22,CC1CCC(NC(=O)C2CCN(c3nc4ccccc4s3)CC2)CC1 (stereo unspecified),inactive: 7.57%
